Consider one molecule from article PMC11024108.

Assay [1] addresses T1, CYB5R3 (human (endogenous in HEK293T)) (UniProt P00387).
T1 sequence: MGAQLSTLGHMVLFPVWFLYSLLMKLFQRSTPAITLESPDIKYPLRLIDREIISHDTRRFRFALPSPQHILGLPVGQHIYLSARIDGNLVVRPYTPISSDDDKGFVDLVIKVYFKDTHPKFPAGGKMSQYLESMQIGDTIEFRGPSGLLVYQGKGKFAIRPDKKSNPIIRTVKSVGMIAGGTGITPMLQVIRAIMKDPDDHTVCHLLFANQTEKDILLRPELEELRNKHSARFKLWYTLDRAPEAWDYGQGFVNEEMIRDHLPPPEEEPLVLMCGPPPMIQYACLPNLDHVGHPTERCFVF
The experiment in a line: cross-linking; intact high purity mitochondria from HEK293T cells, 1 mg/ml in Buffer M, two aliquots of 0.5 mM DSSO, each 20 min at room temperature; cross-linked lysine pairs identified by LC-MS (XlinkX), 2% FDR at the level of unique cross-linked residue pairs; three biological replicates.

In assay [2] the target is T2, VDAC2 (human (endogenous in HEK293T)) (UniProt P45880).
T2 sequence: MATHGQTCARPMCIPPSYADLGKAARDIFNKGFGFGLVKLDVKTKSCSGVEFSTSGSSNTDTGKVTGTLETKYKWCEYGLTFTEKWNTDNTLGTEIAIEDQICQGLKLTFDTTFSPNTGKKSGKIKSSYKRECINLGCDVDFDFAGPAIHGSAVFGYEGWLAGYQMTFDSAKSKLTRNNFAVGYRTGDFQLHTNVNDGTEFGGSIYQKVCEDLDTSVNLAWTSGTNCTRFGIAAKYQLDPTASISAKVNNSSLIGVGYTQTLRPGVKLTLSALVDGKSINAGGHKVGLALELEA
The description is as above.

Results are given in words; binding and its absence hold for the method and conditions named. Binding seen in cells or lysates may run through a third protein. Some results given as binding are weak or reduced against the parent protein; the word gives no strength.

B1: FAF2 (protein, UniProt Q96CS3 1-445)
chain: MAAPEERDLTQEQTEKLLQFQDLTGIESMDQCRHTLEQHNWNIEAAVQDRLNEQEGVPSVFNPPPSRPLQVNTADHRIYSYVVSRPQPRGLLGWGYYLIMLPFRFTYYTILDIFRFALRFIRPDPRSRVTDPVGDIVSFMHSFEEKYGRAHPVFYQGTYSQALNDAKRELRFLLVYLHGDDHQDSDEFCRNTLCAPEVISLINTRMLFWACSTNKPEGYRVSQALRENTYPFLAMIMLKDRRMTVVGRLEGLIQPDDLINQLTFIMDANQTYLVSERLEREERNQTQVLRQQQDEAYLASLRADQEKERKKREERERKRRKEEEVQQQKLAEERRRQNLQEEKERKLECLPPEPSPDDPESVKIIFKLPNDSRVERRFHFSQSLTVIHDFLFSLKESPEKFQIEANFPRRVLPCIPSEEWPNPPTLQEAGLSHTEVLFVQDLTDE
B1: the binding result in assay [1] and in assay [2] was “binds” throughout.
